Experimental data taken from patent US20250109177A1, “EVOLVED PROTEIN DEGRONS” (The Broad Institute, Inc., priority 2022, published 2025).
These are yes or no findings as the source states them, for the method shown. Some binding calls cover weakened binding; strength is not graded here. Where a sequence is shown, tags or fusion partners need not be part of it.

Chains of the proteins cited; added tags and fusions are not shown. Lines headed by an entry give the natural chain unless they say otherwise; changes in a name come on top.
UniProt Q96SW2: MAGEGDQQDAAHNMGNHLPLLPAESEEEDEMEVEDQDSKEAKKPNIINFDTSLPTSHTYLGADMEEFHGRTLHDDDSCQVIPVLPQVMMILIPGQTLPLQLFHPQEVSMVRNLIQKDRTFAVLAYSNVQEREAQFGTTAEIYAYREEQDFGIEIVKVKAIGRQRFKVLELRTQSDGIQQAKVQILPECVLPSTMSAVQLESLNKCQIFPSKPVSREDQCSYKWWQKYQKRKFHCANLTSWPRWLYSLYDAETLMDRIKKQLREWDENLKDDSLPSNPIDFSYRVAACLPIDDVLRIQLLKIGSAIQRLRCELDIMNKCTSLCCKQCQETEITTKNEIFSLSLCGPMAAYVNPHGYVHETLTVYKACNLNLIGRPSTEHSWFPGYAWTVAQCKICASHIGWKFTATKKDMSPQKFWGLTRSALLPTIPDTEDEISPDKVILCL
UniProt Q16531: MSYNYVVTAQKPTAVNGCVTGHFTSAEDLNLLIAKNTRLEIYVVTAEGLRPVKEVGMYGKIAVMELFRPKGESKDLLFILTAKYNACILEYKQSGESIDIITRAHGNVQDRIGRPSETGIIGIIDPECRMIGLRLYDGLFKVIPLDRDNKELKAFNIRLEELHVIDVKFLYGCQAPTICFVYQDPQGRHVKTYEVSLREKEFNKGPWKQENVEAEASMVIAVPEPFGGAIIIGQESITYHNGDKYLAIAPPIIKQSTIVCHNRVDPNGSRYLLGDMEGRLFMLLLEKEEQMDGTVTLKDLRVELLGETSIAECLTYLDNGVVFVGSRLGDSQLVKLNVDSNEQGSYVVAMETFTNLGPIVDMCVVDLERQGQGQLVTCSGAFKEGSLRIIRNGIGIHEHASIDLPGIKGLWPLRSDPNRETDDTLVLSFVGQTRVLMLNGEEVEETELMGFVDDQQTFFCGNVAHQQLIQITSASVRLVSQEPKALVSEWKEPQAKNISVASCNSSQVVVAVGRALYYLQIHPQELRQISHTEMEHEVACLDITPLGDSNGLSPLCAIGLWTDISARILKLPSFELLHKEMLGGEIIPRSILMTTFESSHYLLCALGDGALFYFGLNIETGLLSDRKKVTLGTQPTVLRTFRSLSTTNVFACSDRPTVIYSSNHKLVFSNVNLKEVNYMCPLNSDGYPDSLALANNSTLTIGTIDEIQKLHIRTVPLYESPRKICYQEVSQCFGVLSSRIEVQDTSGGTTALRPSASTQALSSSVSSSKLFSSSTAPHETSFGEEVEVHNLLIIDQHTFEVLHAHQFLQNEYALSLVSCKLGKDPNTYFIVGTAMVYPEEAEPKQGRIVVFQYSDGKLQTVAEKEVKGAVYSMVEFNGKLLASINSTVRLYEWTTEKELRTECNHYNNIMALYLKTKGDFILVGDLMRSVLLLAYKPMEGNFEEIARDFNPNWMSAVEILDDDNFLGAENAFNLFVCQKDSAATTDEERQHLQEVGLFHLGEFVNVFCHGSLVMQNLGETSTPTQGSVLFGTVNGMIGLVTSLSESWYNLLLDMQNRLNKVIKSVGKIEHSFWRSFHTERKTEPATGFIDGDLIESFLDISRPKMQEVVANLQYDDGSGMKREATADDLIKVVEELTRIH

Tests used:
[1] = target: T1, DDB1·CRBN precomplexed with PT-179 (human) (UniProt Q96SW2+Q16531); test: BLI, immobilized MBP-degron, DDB1·CRBN precomplexed with PT-179
[2] = target: T2, DDB1·CRBN precomplexed with pomalidomide (human) (UniProt Q96SW2+Q16531); test: BLI, immobilized MBP-degron, DDB1·CRBN precomplexed with pomalidomide
[3] = target: T2, DDB1·CRBN precomplexed with pomalidomide (human); test: bio-layer interferometry, immobilized MBP-degron, DDB1·CRBN precomplexed with pomalidomide
[4] = target: T1, DDB1·CRBN precomplexed with PT-179 (human); test: bio-layer interferometry, immobilized MBP-degron, DDB1·CRBN precomplexed with PT-179

Measured: binding

B1: MBP-SD40 (minimal evolved degron SD40 fused to maltose binding protein) (designed binder, not shown: large carriers)
chain: LLLFCPICGFTCRQKGNLLRHINLHTGEKLFKYHLY
binds: [1] | [2] | [3] | [4]
